Experimental data as given in patent publication US20250109201A1.
No constants are given. Whether binding was seen depends on the method and setting. Some entries that bind do so weakly or less than the wild type.

Sequences of proteins named here, by UniProt entry; tags and fusion partners are left off. Residues count along the entry.
UniProt Q8NHL6, residues 24-482: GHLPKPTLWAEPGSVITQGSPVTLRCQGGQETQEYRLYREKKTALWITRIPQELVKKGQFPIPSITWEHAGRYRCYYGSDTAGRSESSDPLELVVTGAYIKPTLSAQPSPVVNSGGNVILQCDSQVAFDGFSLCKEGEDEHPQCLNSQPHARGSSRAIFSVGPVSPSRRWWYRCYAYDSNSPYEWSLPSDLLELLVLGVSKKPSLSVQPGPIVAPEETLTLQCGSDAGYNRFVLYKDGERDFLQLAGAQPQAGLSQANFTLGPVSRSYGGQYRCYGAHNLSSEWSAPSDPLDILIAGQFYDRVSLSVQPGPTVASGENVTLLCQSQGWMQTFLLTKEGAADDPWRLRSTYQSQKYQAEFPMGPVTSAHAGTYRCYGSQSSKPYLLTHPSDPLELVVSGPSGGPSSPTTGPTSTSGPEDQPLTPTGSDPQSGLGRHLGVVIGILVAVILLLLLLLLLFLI

Assays:
[1] = target: human ILT2 extracellular and transmembrane domains expressed on CHO cells (human) (UniProt Q8NHL6); assay: flow cytometry, CHO cells with high and with low human ILT2
[2] = target: human ILT2 extracellular and transmembrane domains expressed on CHO cells (human) (UniProt Q8NHL6); assay: flow cytometry, CHO cells expressing a relatively high level of human ILT2, FITC mouse anti-human IgG4
[3] = target: human ILT2 extracellular and transmembrane domains expressed on CHO cells (human) (UniProt Q8NHL6); assay: flow cytometry, CHO cells expressing a relatively low level of human ILT2, FITC mouse anti-human IgG4

- binding [1]: binds
- binding [2]: binds
- binding [3]: binds
B1: 15G8 (Reference antibody) (antibody, V domains shown)
VH: DVQLQGSGPGLVKPSETLSLTCSVTGYSITSGYYWNWIRQFPGKKLEWMGYISYDGSNNYNPSLKNRITISRDTSKNQFSLKLNSVTAADTATYYCAHGYSYYYAMDAWGQGTSVTVSS
VL: DIQMTQSPSSLSASVGDRVTITCRTSQDISNYLNWYQQKPGKAVKLLISYTSRLHSGVPSRFSGSGSGTDYTLTISSLQPEDFATYYCQQGNTLPTFGQGTKLEIK
